Assay results: PMC7340788, “Structure of the yeast Swi/Snf complex in a nucleosome free state” (Nature Communications, 2020)
No constants are given. Whether binding was seen depends on the method and setting. In cells and extracts the contact can be indirect. Here binding means that the protein was enriched with, or labelled near, the bait; the list need not be complete.

The chains behind the UniProt entries cited, without tags or fusion partners.
UniProt P18888: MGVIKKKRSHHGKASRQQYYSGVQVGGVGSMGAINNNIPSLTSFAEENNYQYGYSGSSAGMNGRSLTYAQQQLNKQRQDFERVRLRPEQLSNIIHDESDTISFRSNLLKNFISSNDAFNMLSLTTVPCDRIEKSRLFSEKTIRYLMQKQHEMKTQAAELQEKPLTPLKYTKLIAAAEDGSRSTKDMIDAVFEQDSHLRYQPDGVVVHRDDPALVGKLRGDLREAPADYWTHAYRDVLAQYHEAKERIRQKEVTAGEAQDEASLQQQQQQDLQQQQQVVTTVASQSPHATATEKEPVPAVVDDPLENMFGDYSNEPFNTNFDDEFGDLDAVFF
UniProt P35189: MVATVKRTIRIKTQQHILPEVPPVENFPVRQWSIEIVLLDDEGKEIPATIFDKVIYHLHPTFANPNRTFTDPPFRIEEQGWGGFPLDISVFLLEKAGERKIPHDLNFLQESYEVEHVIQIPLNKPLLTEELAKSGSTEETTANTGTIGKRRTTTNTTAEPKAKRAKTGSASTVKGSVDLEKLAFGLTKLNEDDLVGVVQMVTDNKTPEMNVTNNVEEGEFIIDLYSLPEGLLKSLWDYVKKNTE
UniProt Q12406: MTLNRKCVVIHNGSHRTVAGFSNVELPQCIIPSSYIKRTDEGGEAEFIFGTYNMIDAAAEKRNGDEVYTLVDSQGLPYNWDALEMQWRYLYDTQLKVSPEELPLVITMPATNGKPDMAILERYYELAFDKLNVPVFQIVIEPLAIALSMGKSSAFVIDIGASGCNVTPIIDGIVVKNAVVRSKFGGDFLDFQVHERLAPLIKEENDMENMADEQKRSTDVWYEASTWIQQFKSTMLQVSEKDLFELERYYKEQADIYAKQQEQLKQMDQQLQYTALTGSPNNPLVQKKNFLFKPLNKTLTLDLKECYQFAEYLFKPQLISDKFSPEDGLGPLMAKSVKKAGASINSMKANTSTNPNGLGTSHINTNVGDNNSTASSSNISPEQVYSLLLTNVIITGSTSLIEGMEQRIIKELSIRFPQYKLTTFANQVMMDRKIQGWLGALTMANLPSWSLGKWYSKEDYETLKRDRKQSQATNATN
UniProt Q05123: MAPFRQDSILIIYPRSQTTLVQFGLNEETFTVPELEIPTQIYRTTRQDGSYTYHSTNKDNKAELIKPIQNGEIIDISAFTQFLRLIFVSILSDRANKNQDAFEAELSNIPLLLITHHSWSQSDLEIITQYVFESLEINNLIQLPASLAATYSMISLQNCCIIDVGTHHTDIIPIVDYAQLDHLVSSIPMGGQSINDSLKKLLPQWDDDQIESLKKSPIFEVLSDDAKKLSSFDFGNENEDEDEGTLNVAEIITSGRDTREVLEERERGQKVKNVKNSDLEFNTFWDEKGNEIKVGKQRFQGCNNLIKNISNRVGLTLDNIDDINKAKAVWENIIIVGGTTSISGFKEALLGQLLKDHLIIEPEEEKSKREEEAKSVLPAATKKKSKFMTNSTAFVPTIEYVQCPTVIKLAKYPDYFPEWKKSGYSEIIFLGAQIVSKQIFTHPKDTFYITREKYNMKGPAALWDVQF

Biological target: Snf6 with a C-terminal 3-Flag tag (S. cerevisiae) (UniProt P18888)
Assay: affinity purification with mass spectrometry; Snf6-3Flag from yeast extract on ANTI-FLAG M2 resin, eluted with FLAG peptide, Superose 6 in 20 mM HEPES pH 7.4, 350 mM NaCl; SDS-PAGE bands identified by LC-MS/MS

Row | binding | Molecule
1 | binds | Taf14 (from UniProt P35189 1-244)
2 | binds | Arp7 (from UniProt Q12406 1-477)
3 | binds | Arp9 (from UniProt Q05123 1-467)
4 | binds | Snf11 (protein, UniProt P38956 1-169) MSSEIAYSNTNTNTENENRNTGAGVDVNTNANANANATANATANATANATAELNLPTVDEQRQYKVQLLLHINSILLARVIQMNNSLQNNLQNNINNSNNNNIIRIQQLISQFLKRVHANLQCISQINQGVPSAKPLILTPPQLANQQQPPQDILSKLYLLLARVFEIW
5 | binds | Rtt102 (protein, UniProt P53330 1-157) MDPQTLITKANKVSYYGNPTSKESWRYDWYQPSKVSSNVQQPQQQLGDMENNLEKYPFRYKTWLRNQEDEKNLQRESCEDILDLKEFDRRILKKSLMTSHTKGDTSKATGAPSANQGDEALSVDDIRGAVGNSEAIPGLSAGVNNDNTKESKDVKMN
